Experimental data reported in PubChem BioAssay AID1347076 (National Center for Advancing Translational Sciences (NCATS), 2019).
The campaign covered roughly 400,000 compounds. About 13,000 (3.2%) were called active. Inconclusive means that the source gave no clear call. Such entries were picked first, then a sample of the others. The call rests on the fitted dose curve; in most records, active means well fitted cell-killing curve with a large enough effect; inconclusive means small, poorly fitted or top-dose-only effect, or effect the other way; inactive means flat fitted curve, though single readings scatter. Where the call is inconclusive, the potency comes from a doubtful curve fit.

Assay: qHTS assay for MDR1-selective chemotherapeutics: Primary screen using the drug-selected MDR subline cells KB-V1; further: nearly all actives have a fitted effect of over 60% in size
Conditions: KB-V1 MDR cells viability, CellTiter-Glo, 72 h; series mostly up to 46.1 µM
In short: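 Following 72 h at 37 degrees C with compound, KB-V1 cell viability was read by CellTiter-Glo luminescence, medium being phenol-red-free DMEM plus 10% FBS; concentration-response parameters came from normalized, curve-fitted qHTS data.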
Potency means the concentration at half of the fitted maximal effect.

Compound	Potency
O=C(CCn1c(=O)c2ccccc2n(Cc2cccc(F)c2)c1=O)NCc1ccc2c(c1)OCO2	inactive
CC(=O)N1CCN=C1SCc1cccc(C)c1	inconclusive: 29.1 µM [rising, single point]
CCN1C(=O)C(=O)N(CC(=O)Nc2cccc(C(F)(F)F)c2)C1=O	inactive
CCn1c(O)c(C=NCc2cccs2)c(=O)n(CC)c1=S	inactive
CCc1nc2c(OCCc3cccc(OC)c3)cccn2c1N(C=O)Cc1ccccc1	inactive
Cc1ccc(NC(=O)C2(C)CCN2C(=O)CC(c2ccccc2)c2ccccc2)cc1 (centres undefined)	inconclusive: 8.2 µM [cytotoxic, partial curve]
CCN(CC)S(=O)(=O)c1ccc(N2CCOCC2)c(NC(=O)c2ccccc2)c1	inconclusive: 8.2 µM [cytotoxic, partial curve]
CCN(CC(=O)Nc1c(F)cccc1F)C(=O)/C=C/c1ccc(S(=O)(=O)N2CCCCCC2)cc1	inconclusive: 5.8 µM [cytotoxic, partial curve]
COC(=O)c1cc(NC(=O)CN(c2ccc(OC)cc2)S(=O)(=O)c2ccc(F)cc2)ccc1Cl	inconclusive: 16.4 µM [cytotoxic, partial curve]
O=S(=O)(Nc1cccc(S(=O)(=O)N2CCCC2)c1)c1ccc(Cl)cc1	inconclusive: 29.1 µM [cytotoxic, single point]
CC1(C)NC(=O)N(CCCCOc2ccc(Cl)cc2)C1=O	inactive
Cc1ccc(-c2c(C(=O)N3CCN(c4ccc(F)cc4)CC3)oc(=O)c3ccccc23)cc1	inconclusive: 1.84 µM [cytotoxic, partial curve, poor fit]
CCC(=O)c1ccc(OCC(O)CNCc2ccc(F)cc2)cc1 (centres undefined)	inconclusive: 18.4 µM [cytotoxic, partial curve, poor fit]
CCOc1ccc(C(=O)/C=C/c2cn(CC(O)CN3CCc4ccccc43)c3ccccc23)cc1 (centres undefined)	inconclusive: 29.1 µM [cytotoxic, single point]
Cc1ccc(C2C(C#N)=C(N)OC3=C2C(=O)CCC3)s1 (centres undefined)	inconclusive: 10.3 µM [rising, partial curve, poor fit]
CCOC(=O)/C=C1\SCC(=O)N1CC(=O)NC(c1ccccc1)c1ccccc1	active: 6.51 µM
CCOC(=O)c1c(C)[nH]c(C(=O)COC(=O)C2CC2C)c1C (centres undefined)	inconclusive: 6.51 µM [cytotoxic, partial curve]
COc1cc(C(=O)Oc2cccc(/C=N/NC(=O)c3cc(C)[nH]n3)c2)cc(OC)c1OC	inactive
CN(C)c1ccc(S(=O)(=O)NCC(=O)NCCC2=CCCCC2)cc1[N+](=O)[O-]	active: 18.4 µM
Cc1cc(C)nc(N/N=C/c2c(CO)cnc(C)c2O)n1	inconclusive: 2.59 µM [cytotoxic, single point]
O=C(O)CCn1cc(/C=C2/NC(=S)N(c3ccccc3)C2=O)c(-c2ccccc2)n1	inactive
COc1ccc(N2CCN(c3nc4ccc(C(=O)c5ccccc5)cc4n4cnnc34)CC2)cc1	inactive

Structures from the list above containing two or more sulfur atoms, in the order listed:
Compound	Potency
CCn1c(O)c(C=NCc2cccs2)c(=O)n(CC)c1=S	inactive
O=S(=O)(Nc1cccc(S(=O)(=O)N2CCCC2)c1)c1ccc(Cl)cc1	inconclusive: 29.1 µM [cytotoxic, single point]

Some of the entries so far, in markdown.

| Compound | Potency |
| --- | --- |
| Cc1ccc(C2C(C#N)=C(N)OC3=C2C(=O)CCC3)s1 (centres undefined) | inconclusive: 10.3 µM [rising, partial curve, poor fit] |
| CCOC(=O)/C=C1\SCC(=O)N1CC(=O)NC(c1ccccc1)c1ccccc1 | active: 6.51 µM |

Further entries.

Compound	Potency
CC(C)c1ccc(S(=O)(=O)N2CCN(C(=O)CCNS(=O)(=O)c3ccccc3F)CC2)cc1	inactive
CCOC(=O)c1c(C)[nH]c(C(=O)OCC(O)=C(C#N)c2nc3ccccc3[nH]2)c1C	inconclusive: 32.6 µM [rising, single point]
COc1ccc(NC(=O)CCNS(=O)(=O)c2cc(Br)cnc2N)cc1OC	inconclusive: 14.6 µM [rising, partial curve]
COCCNS(=O)(=O)c1cc(OC)c(C)cc1C	inconclusive: 29.1 µM [rising, single point]
Cc1cc(Cl)ccc1OC(C)C(=O)Nc1ccccc1N1CCOCC1 (centres undefined)	inconclusive: 23.1 µM [cytotoxic, single point]
CCOC(=O)C(NC(=O)c1ccc(F)cc1)(Nc1sc2c(c1C(N)=O)CCC2)C(F)(F)F (centres undefined)	inactive
O=C(Nc1cccc([N+](=O)[O-])c1)c1cc2ccccc2cc1O	inconclusive: 6.51 µM [cytotoxic, full curve, poor fit]
CCc1nn(C(C)C(=O)N2CCc3ccccc3C2)c(=O)c2cc3occc3n12 (centres undefined)	inconclusive: 14.6 µM [cytotoxic, partial curve]
Cc1ccc2c(CN(C)Cc3cccc(Cl)c3)cc(=O)oc2c1C	inconclusive: 29.1 µM [cytotoxic, single point]
CCOC(=O)N1CCC(NC(=O)c2cnn(-c3ccc(OC)cc3)c2C2CCN(C(=O)OC(C)(C)C)CC2)CC1	inactive
COc1ccc(C(CNC(=O)c2oc3ccc(Br)cc3c2C)N2CCCCC2)cc1 (centres undefined)	inconclusive: 29.1 µM [cytotoxic, single point]
Fc1ccc2[nH]c3c(N4CCSCC4)ncnc3c2c1	active: 3.26 µM
O=C1N/C(=N\N=C\c2cccnc2)SC1Cc1ccc(SC(F)F)cc1 (centres undefined)	active: 4.11 µM
Cc1cn(C)c(CC(=O)Nc2cccc(C#N)c2)c1C(=O)O	inconclusive: 1.03 µM [rising, full curve, poor fit]
COC(=O)C1=CN(c2ccc(OC)cc2OC)C(N)=C(C#N)C1c1ccc(OC)cc1 (centres undefined)	inconclusive: 7.31 µM [cytotoxic, partial curve, poor fit]
Cc1ccc(Cn2c(=O)n(-c3cccc(C(F)(F)F)c3)c(=O)c3c(C)c(C)sc32)c(C)c1	inactive
CC(C)CN1CCC(C(=O)N2CCN(c3ccccc3F)CC2)CC1	inconclusive: 23.1 µM [cytotoxic, partial curve, poor fit]
COC(=O)c1ccc2nc(-c3cccc(Cl)c3)c(Cc3ccccc3)n2c1	inconclusive: 18.4 µM [cytotoxic, partial curve]
Oc1ccc2[nH]ccc2c1	inactive
Cc1ccc(Cn2c(=O)c3cccnc3n(Cc3ccc(C)cc3)c2=O)cc1	inactive
CCCOc1ccc(NC(=O)Cc2ccc(S(=O)(=O)N3CCOCC3)s2)cc1OCCC	inconclusive: 8.2 µM [cytotoxic, partial curve]
O=C(CN1C(=O)COc2ccc(S(=O)(=O)N3CCCCCC3)cc21)N1CCN(c2ccc(F)cc2)CC1	inactive
